In patent US7763616B2, “Piperazine-piperidines with CXCR3 antagonist activity” (Schering Corporation, priority 2005, dated 2010):
The match of structure and compound is tentative.

Protein sequences, listed by entry. Tags and fused reporters are not part of them. Residues count along the entry.
UniProt P49682, 5-368 limits assumed: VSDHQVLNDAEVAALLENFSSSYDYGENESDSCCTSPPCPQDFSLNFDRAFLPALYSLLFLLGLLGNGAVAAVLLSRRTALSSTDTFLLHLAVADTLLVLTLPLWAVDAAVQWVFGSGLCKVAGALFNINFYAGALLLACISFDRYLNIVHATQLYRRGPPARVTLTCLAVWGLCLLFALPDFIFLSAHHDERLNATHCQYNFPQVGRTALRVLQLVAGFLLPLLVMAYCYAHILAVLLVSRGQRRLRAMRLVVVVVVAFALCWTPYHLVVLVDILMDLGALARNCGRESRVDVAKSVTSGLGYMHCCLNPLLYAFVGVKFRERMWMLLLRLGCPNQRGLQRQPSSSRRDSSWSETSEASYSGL

Molecular target: human CXCR3 (N-delta 4) (Homo sapiens, UniProt P49682)
Assay: Human CXCR3 (N-delta 4) Scintillation Proximity Assay (SPA), [125I] IP-10 binding
Conditions: IC50 ratings; Ba/F3-hCXCR3 (N-delta 4) membranes, 25 pM [125I] IP-10
Description: The inventive compounds can readily be evaluated to determine activity at the CXCR3 receptors by known methods, such as, for example, development of a human CXCR3 (N-delta 4) Binding Assay.
Cloning and Expression of Human CXCR3 (N-delta 4):
The DNA encoding human CXCR3 was cloned by PCR using human genomic DNA (Promega, Madison, Wis.) as a template. The PCR primers were designed based on the published sequence of human orphan receptor GPR9 (1) with incorporated restriction sites, a Kozak consensus sequence, CD8 leader and Flag tag. […]
Ba/F3 cells expressing human CXCR3 (N-delta 4) were pelleted and resuspended in the lysis buffer containing 10 mM HEPES, pH 7.5 and Complete® protease inhibitors (1 tablet per 100 ml) (Boehringer Mannheim, Indianapolis, Ind.) at a cell density of 20×10^6 cells per ml. […] Total protein concentration of the membrane was determined by BCA method from Pierce (Rockford, Ill.). […]
For each assay point, 2 μg of membrane was preincubated for 1 hr with 300 μg wheat germ agglutinin (WGA) coated SPA beads (Amersham, Arlington Heights, Ill.) in the binding buffer (50 mM HEPES, 1 mM CaCl2, 5 mM MgCl2, 125 mM NaCl, 0.002% NaN3, 1.0% BSA) at room temperature. […] IP10 bound to the SPA beads was determined with a Wallac 1450 Microbeta counter.

CC[C@H]1CN(c2nc3[nH]c(=O)[nH]c3nc2Cl)CCN1C1CCN([C@@H](C(=O)OC)c2ccc(Cl)cc2)CC1
IC50: < 25 nM
